Some of these results come from one statement about several compounds together. Some compounds share one range, which may span the group rather than tell each member.
Tests used:
[1] = Chemiluminescence measurement of anti-TSH antibody conjugate of acridinium ester 3b with cationic surfactants
Experimental: (§1) To study the impact of degradable cationic surfactants on acridinium ester chemiluminescence, two exemplary cationic surfactants containing cleavable linkages (FIG. 2A) were selected. The synthetic schemes for the two surfactants are illustrated in FIGS. 3-4 and described in Examples 1 and 2 above. Both surfactants were dissolved in Reagent 1 (0.1 M nitric acid containing 0.5% hydrogen peroxide) at five times their reported CMCs in water. CTAC dissolved in Reagent 2 (0.25 M NaOH) was used as the control surfactant. […] The conjugates were stored at 4° C. in buffer and chemiluminescence from each conjugate was measured in the absence of surfactant and in the presence of CTAC as well as cationic surfactants 1 and 2 (Tables 1-3, FIGS. 5-7). The ability of each surfactant to (a) increase total light output and (b) accelerate emission kinetics was evaluated over a period of 80 days.
(§2) Chemiluminescence of anti-TSH antibody conjugates of acridinium esters 3a, 3b and 3c (FIG. 2B) was measured on an Autolumat LB953 Plus luininometer from Behold Technologies. […] Each chemiluminescence flash curve was measured in 240 intervals of 0.5 second (120 seconds total time). […] The output from the luminometer instrument was expressed as R.L.U.s (Relative Light Units).

[2] = Chemiluminescence measurement of anti-TSH antibody conjugate of acridinium ester 3a with cationic surfactants
Experimental: as §1, §2

[3] = Chemiluminescence measurement of anti-TSH antibody conjugate of acridinium ester 3c with cationic surfactants
Experimental: as §1, §2

[4] = approximate range over 80 days, no surfactant control = 1

CCCCCCCCCCCCCCCC[N+](C)(C)C.[Cl-] [CTAC, cetyltrimethylammonium chloride, reference compound]
total light yield increase [1, 4]: 3-5 fold | emission time (time for emission of >90% light) ([1]; without surfactant 49.5 seconds): < 3 s | total light yield increase [2, 4]: 2.5-4 fold | emission time (time for emission of >90% light) ([2]; without surfactant 57.5 seconds): < 3 s | total light yield increase [3, 4]: 3-4.5 fold | emission time (time for emission of >90% light) ([3]; without surfactant 62.5 seconds): < 3 s

— patent publication US10859504B2, “Degradable cationic surfactants and use thereof in enhancing chemiluminescence” (Siemens Healthcare Diagnostics Inc., priority 2013, dated 2020)
